Measurements taken from publication PMC9123692.
No constants are given. Whether binding was seen depends on the method and setting. Some entries that bind do so weakly or less than the wild type. Tags and fused reporters may be left off the sequences shown.

T1: recombinant L-selectin Fc chimera (UniProt P14151)
T1 sequence: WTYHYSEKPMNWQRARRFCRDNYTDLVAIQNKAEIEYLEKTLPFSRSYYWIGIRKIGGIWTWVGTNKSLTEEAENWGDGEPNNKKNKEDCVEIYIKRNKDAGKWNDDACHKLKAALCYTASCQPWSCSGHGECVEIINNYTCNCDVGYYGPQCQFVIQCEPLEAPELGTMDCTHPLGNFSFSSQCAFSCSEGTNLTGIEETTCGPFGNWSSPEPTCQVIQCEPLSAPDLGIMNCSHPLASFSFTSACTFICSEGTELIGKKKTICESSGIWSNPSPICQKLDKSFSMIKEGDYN


Molecular target: T1, recombinant L-selectin Fc chimera
Test: virion capture on immunomagnetic beads; protein G Dynabeads armed with 0.5 μg of recombinant Fc chimera (P-, E-, L-selectin or MAdCAM-1); virus-containing supernatant incubated 1-2 h at room temperature; washed with FBS-PBS; bead-associated virus lysed and p24 read by AlphaLISA; only the target purified

| Binder | binding |
| --- | --- |
| P-selectin glycoprotein ligand-1 (PSGL-1/CD162), incorporated into HIV-1 NL4-3 virions produced by transfection of HEK293T cells (protein, UniProt Q14242 42-412) QATEYEYLDYDFLPETEPPEMLRNSTDTTPLTGPGTPESTTVEPAARRSTGLDAGGAVTELTTELANMGNLSTDSAAMEIQTTQPAATEAQTTQPVPTEAQTTPLAATEAQTTRLTATEAQTTPLAATEAQTTPPAATEAQTTQPTGLEAQTTAPAAMEAQTTAPAAMEAQTTPPAAMEAQTTQTTAMEAQTTAPEATEAQTTQPTATEAQTTPLAAMEALSTEPSATEALSMEPTTKRGLFIPFSVSSVTHKGIPMAASNLSVNYPVGAPDHISVKQCLLAILILALVATIFFVCTVVLAVRLSRKGHMYPVRNYSPTEMVCISSLLPDGGEGPSATANGGLSKAKSPGLTPEPREDREGDDLTLHSFLP | binds |
| P-selectin glycoprotein ligand-1 (PSGL-1/CD162), endogenous, incorporated into HIV-1 IIIB virions produced in primary PBMC (protein, UniProt Q14242 42-412) QATEYEYLDYDFLPETEPPEMLRNSTDTTPLTGPGTPESTTVEPAARRSTGLDAGGAVTELTTELANMGNLSTDSAAMEIQTTQPAATEAQTTQPVPTEAQTTPLAATEAQTTRLTATEAQTTPLAATEAQTTPPAATEAQTTQPTGLEAQTTAPAAMEAQTTAPAAMEAQTTPPAAMEAQTTQTTAMEAQTTAPEATEAQTTQPTATEAQTTPLAAMEALSTEPSATEALSMEPTTKRGLFIPFSVSSVTHKGIPMAASNLSVNYPVGAPDHISVKQCLLAILILALVATIFFVCTVVLAVRLSRKGHMYPVRNYSPTEMVCISSLLPDGGEGPSATANGGLSKAKSPGLTPEPREDREGDDLTLHSFLP | binds |
| P-selectin glycoprotein ligand-1 (PSGL-1/CD162), endogenous, incorporated into HIV-1 IIIB virions produced in T cell lines (protein, UniProt Q14242 42-412) QATEYEYLDYDFLPETEPPEMLRNSTDTTPLTGPGTPESTTVEPAARRSTGLDAGGAVTELTTELANMGNLSTDSAAMEIQTTQPAATEAQTTQPVPTEAQTTPLAATEAQTTRLTATEAQTTPLAATEAQTTPPAATEAQTTQPTGLEAQTTAPAAMEAQTTAPAAMEAQTTPPAAMEAQTTQTTAMEAQTTAPEATEAQTTQPTATEAQTTPLAAMEALSTEPSATEALSMEPTTKRGLFIPFSVSSVTHKGIPMAASNLSVNYPVGAPDHISVKQCLLAILILALVATIFFVCTVVLAVRLSRKGHMYPVRNYSPTEMVCISSLLPDGGEGPSATANGGLSKAKSPGLTPEPREDREGDDLTLHSFLP | binds |
